Results from PMC9245043.

By UniProt entry, the sequences of proteins in these tests, tags left out. Where a name states a change or a piece, a line headed by the entry shows the natural chain unless it says otherwise.
UniProt P39113: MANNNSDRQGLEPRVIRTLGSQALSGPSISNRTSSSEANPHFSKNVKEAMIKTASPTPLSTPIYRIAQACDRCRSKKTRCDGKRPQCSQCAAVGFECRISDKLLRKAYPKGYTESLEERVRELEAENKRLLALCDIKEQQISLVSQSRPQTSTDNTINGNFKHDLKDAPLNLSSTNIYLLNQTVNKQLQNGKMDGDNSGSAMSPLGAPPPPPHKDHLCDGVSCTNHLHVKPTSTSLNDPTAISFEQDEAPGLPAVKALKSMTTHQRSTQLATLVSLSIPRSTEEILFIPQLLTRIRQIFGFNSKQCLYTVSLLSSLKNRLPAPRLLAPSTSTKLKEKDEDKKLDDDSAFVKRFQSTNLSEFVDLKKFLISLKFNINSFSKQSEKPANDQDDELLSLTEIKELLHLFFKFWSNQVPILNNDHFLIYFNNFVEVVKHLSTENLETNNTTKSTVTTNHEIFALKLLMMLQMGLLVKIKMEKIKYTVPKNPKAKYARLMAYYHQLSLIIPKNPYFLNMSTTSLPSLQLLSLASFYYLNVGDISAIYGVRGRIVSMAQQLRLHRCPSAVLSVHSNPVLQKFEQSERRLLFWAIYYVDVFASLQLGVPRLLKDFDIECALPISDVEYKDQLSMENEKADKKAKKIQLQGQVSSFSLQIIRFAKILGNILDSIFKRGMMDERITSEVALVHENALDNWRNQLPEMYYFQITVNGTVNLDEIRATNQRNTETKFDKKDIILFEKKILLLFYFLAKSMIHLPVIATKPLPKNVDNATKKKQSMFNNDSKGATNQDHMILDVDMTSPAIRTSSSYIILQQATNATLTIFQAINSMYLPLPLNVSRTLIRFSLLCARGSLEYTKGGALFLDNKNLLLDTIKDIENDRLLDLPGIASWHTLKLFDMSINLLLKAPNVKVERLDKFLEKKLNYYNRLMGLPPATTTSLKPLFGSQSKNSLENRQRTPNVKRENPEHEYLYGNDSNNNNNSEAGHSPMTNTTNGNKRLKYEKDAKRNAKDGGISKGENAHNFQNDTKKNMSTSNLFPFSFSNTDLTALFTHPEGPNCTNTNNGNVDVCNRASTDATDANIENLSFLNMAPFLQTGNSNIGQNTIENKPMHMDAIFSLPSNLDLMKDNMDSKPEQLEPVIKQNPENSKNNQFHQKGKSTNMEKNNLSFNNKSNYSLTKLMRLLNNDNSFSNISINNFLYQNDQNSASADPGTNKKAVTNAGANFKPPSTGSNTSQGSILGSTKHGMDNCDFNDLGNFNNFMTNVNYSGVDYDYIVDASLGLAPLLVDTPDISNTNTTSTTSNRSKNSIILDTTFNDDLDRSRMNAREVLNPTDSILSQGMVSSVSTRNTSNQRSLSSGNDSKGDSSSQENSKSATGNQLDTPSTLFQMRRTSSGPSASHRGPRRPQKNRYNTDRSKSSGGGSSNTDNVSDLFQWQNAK

B1: Gln3 with Myc tag (plasmid YEpA-GLN3-Myc) (protein, UniProt P18494 1-730)
chain: MQDDPENSKLYDLLNSHLDVHGRSNEEPRQTGDSRSQSSGNTGENEEDIAFASGLNGGTFDSMLEALPDDLYFTDFVSPFTAAATTSVTTKTVKDTTPATNHMDDDIAMFDSLATTQPIDIAASNQQNGEIAQLWDFNVDQFNMTPSNSSGSATISAPNSFTSDIPQYNHGSLGNSVSKSSLFPYNSSTSNSNINQPSINNNSNTNAQSHHSFNIYKLQNNNSSSSAMNITNNNNSNNSNIQHPFLKKSDSIGLSSSNTTNSVRKNSLIKPMSSTSLANFKRAASVSSSISNMEPSGQNKKPLIQCFNCKTFKTPLWRRSPEGNTLCNACGLFQKLHGTMRPLSLKSDVIKKRISKKRAKQTDPNIAQNTPSAPATASTSVTTTNAKPIRSRKKSLQQNSLSRVIPEEIIRDNIGNTNNILNVNRGGYNFNSVPSPVLMNSQSYNSSNANFNGASNANLNSNNLMRHNSNTVTPNFRRSSRRSSTSSNTSSSSKSSSRSVVPILPKPSPNSANSQQFNMNMNLMNTTNNVSAGNSVASSPRIISSANFNSNSPLQQNLLSNSFQRQGMNIPRRKMSRNASYSSSFMAASLQQLHEQQQVDVNSNTNTNSNRQNWNSSNSVSTNSRSSNFVSQKPNFDIFNTPVDSPSVSRPSSRKSHTSLLSQQLQNSESNSFISNHKFNNRLSSDSTSPIKYEADVSAGGKISEDNSTKGSSKESSAIADELDWLKFGI
B2: Aro80 with Myc tag (plasmid YEpA-ARO80-Myc) (protein, UniProt Q04052 1-950)
chain: MSAKKRPSGNAAFELPKRRRTYQACISCRSRKVKCDLGPVDNPHDPPCARCKRELKKCIFSSNKGTSNDLPPNSINAISLPSLGKSKQEIQNDSTSPILSDVPLSRKGISSEKSFKSEGMKWKLELSSMQNALEFLAQAAGTVAKEGAKEIIKEKSTTPKPLKSSLDATNKSATDEGLKRLSKSDSTNTLYENTADMLNHTLNTNRKTSQLMEEIGKVRPPPTRKIDDFDYIGPDSLLTKEEAIELIEAFFLTMHPFFPNIPLQLHDPKELAEYPILFCAILTVSARYHPFDTLGLDNGEDGMRHIEVHDKLWVYCQKLISQTIWAEASTRSIGTVLAFIIFTEWNPRSIHYKWSDYANDPELNNVNARGSKNISTRKDEEGLTGVGAIRRSDRMSWMLTGSAVRLAQDMGFIENSSKVFIVTHISETTSAMNMNQRSLLAESFSVLNLNLGKIENDGNESNEDYLGNEKFYLNEILPDEESKLRWKRVFENSENDHDNEKNFLTDWEREFLNDEYVLYYSNKKDDTNLAQNHIPPFPLRFSFAQRAKIEIIRILSIAYETIYCEKNKRKLATTDQRHNLSVLSVFSPLIEGWLSNYRELLVPLSDVPFSLADRKNKKQIFDNIDRINGESIITDFNYCQLYIFSLALQVDGKTSRLNMNEIVTSARYVELAYRSAKEILSSAKRVSRQGMLKYMPVRWVIRIIRSIAFIVKCYLTLTGSELATNPDARNILKLSAISVDETFDIIRDTAVTLKEATPDELHLCQRYAAILMYLCTEMKLRKKSYLERPPLLRDGTTPLESNRESSLEGQDLTKKPIFSKRIGYNKTETTFEPSERPLTEEINSNSQNSNDTSSKGIVDPFVEQNNDITTALLNNELFQGPSLSDEVTDWFGASEDIGLEFVEPWTELIEQRYMQCGDGDNNNFENLYNLFVNSNNINNDINNSRPITRK
B3: Gat1 with Myc tag (plasmid YEpA-GAT1-Myc) (protein, UniProt P43574 1-510)
chain: MHVFFPLLFRPSPVLFIACAYIYIDIYIHCTRCTVVNITMSTNRVPNLDPDLNLNKEIWDLYSSAQKILPDSNRILNLSWRLHNRTSFHRINRIMQHSNSIMDFSASPFASGVNAAGPGNNDLDDTDTDNQQFFLSDMNLNGSSVFENVFDDDDDDDDVETHSIVHSDLLNDMDSASQRASHNASGFPNFLDTSCSSSFDDHFIFTNNLPFLNNNSINNNHSHNSSHNNNSPSIANNTNANTNTNTSASTNTNSPLLRRNPSPSIVKPGSRRNSSVRKKKPALKKIKSSTSVQSSATPPSNTSSNPDIKCSNCTTSTTPLWRKDPKGLPLCNACGLFLKLHGVTRPLSLKTDIIKKRQRSSTKINNNITPPPSSSLNPGAAGKKKNYTASVAASKRKNSLNIVAPLKSQDIPIPKIASPSIPQYLRSNTRHHLSSSVPIEAETFSSFRPDMNMTMNMNLHNASTSSFNNEAFWKPLDSAIDHHSGDTNPNSNMNTTPNGNLSLDWLNLNL

biological target: Cat8 with a 3 × HA tag at the carboxyl terminus (strain YS58-CAT8-HA) (S. cerevisiae) (UniProt P39113); test: co-IP; yeast lysate of strains co-expressing Cat8-HA and a Myc-tagged factor, cells in Phe induction medium with 2% glycerol for 6 h; IP with anti-HA, anti-Myc or IgG (negative control) on magnetic beads at 4°C, IP Lysis/Wash Buffer pH 7.4 (25 mM Tris, 150 mM NaCl, 1 mM EDTA, 1% NP-40, 5% glycerol); immunoblot with HA and Myc antibodies

binding	Binder
no binding	B1
binds	B2
binds	B3

These are yes or no findings as the source states them, for the method shown. Binding seen in cells or lysates may run through a third protein. Binding calls can cover weak binding; strength is not graded here. Sequences can lack the tags named with a protein.
